Results published in patent US9161533B2, “Plant pathogen resistance” (priority 2007, dated 2015).

Assay: GC-MS level of azelaic acid in petiole exudates
Design: species or system Arabidopsis

With `O=C(O)CCCCCCCC(=O)O` [azelaic acid] the “azelaic acid level in mock-induced exudates” value (Col-Mex, 10 mM MgSO4, 72 hrs) was 5.1 µM and the “higher levels of azelaic acid in active vs inactive exudates” value (average, p=0.042) was 6.2 fold.
